Laboratory results: US20250026850A1
Results are given in words; binding and its absence hold for the method and conditions named. Some entries that bind do so weakly or less than the wild type.

The chains behind the UniProt entries cited, without tags or fusion partners. Where a name states a change or a piece, a line headed by the entry shows the natural chain unless it says otherwise.
UniProt P49961: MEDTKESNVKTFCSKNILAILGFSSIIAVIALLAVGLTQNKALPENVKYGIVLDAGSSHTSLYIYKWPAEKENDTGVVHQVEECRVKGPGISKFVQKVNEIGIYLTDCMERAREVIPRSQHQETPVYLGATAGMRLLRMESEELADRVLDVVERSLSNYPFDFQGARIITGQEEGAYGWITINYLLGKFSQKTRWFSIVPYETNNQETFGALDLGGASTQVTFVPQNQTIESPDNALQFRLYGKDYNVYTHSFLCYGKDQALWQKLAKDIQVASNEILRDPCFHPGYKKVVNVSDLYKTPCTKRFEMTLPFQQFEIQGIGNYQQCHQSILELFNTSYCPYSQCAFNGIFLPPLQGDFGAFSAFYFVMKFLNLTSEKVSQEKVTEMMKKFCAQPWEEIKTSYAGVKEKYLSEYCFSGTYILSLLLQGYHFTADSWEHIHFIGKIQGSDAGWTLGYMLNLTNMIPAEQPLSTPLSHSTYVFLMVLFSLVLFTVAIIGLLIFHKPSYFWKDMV

Molecular target: human CD39 on cells (human) (UniProt P49961)
Test: FACS, 15 ug/ml mAb on CHO cells expressing WT human CD39 (row WT, M1-V510); scored yes/NO

binding: binds
B1: 31873 (antibody, V domains shown)
VH: QVQLVQSGAEVKKPGSSVKVSCKASGGTFSKYGISWVRQAPGQGLEWMGSIIPEFGIANYAQKFQGRVTITADESTSTAYMELSSLRSEDTAVYYCARESGGYRDHRLGVWGQGTMVTVSS
VL: EIVMTQSPATLSVSPGERATLSCRASQSVGSNLAWYQQKPGQAPRLLIYGASTRASGIPARFSGSGSGTEFTLTISSLQSEDFAVYYCQQYLLWPLTFGGGTKVEIKR
